Results from the supplement of paper PMC10849652.
The other results are listed elsewhere or left out.

The chains behind the UniProt entries cited, without tags or fusion partners. Where a name states a change or a piece, a line headed by the entry shows the natural chain unless it says otherwise.
UniProt P51532, whole entry, looked up: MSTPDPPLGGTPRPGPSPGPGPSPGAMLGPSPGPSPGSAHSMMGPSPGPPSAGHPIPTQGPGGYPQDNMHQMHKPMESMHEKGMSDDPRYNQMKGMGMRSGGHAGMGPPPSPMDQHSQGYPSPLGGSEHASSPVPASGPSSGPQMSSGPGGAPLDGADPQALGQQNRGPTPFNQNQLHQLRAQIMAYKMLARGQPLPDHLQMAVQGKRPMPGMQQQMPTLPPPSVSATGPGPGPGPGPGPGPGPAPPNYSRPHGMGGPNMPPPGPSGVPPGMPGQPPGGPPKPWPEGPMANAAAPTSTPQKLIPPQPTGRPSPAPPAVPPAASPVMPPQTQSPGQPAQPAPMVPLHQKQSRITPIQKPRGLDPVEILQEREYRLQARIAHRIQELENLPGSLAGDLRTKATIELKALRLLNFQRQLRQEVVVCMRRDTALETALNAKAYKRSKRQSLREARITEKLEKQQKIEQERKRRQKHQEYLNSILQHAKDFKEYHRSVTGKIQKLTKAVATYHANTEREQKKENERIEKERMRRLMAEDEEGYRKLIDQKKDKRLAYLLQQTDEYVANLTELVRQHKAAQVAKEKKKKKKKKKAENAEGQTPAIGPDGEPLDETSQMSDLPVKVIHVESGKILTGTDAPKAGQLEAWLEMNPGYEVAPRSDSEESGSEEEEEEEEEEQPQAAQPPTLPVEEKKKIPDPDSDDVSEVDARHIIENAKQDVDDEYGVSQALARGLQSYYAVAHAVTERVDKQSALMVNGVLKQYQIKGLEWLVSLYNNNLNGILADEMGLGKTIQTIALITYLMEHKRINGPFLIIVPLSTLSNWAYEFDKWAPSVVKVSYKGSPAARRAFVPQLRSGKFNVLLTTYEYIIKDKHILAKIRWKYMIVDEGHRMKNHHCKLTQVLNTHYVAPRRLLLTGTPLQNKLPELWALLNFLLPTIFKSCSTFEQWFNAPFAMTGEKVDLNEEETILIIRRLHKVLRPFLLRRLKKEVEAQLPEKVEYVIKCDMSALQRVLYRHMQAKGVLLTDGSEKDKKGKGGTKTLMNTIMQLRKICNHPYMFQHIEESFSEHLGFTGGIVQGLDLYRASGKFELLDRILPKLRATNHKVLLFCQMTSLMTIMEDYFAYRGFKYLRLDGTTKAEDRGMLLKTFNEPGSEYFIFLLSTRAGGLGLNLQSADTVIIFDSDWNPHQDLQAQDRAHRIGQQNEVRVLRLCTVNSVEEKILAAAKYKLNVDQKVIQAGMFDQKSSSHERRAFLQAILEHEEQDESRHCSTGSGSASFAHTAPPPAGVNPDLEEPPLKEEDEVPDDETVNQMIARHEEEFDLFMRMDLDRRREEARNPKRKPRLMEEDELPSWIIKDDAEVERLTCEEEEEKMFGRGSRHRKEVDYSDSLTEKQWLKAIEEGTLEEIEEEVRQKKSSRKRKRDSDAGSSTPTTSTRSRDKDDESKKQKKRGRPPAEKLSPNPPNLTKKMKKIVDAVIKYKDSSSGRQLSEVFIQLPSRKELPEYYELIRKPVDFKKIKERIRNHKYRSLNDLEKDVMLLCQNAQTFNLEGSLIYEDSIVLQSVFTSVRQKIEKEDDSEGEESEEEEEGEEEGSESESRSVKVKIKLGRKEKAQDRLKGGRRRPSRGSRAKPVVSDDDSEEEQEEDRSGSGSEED
UniProt Q16637, whole entry, looked up: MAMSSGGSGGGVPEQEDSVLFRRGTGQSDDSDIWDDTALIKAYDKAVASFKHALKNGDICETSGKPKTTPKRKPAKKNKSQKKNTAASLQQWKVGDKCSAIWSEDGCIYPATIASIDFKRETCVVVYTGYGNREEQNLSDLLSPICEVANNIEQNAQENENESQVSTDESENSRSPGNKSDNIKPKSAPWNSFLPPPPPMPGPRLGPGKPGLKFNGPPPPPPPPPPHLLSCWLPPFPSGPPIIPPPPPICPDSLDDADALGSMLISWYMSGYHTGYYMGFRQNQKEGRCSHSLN
UniProt Q13425: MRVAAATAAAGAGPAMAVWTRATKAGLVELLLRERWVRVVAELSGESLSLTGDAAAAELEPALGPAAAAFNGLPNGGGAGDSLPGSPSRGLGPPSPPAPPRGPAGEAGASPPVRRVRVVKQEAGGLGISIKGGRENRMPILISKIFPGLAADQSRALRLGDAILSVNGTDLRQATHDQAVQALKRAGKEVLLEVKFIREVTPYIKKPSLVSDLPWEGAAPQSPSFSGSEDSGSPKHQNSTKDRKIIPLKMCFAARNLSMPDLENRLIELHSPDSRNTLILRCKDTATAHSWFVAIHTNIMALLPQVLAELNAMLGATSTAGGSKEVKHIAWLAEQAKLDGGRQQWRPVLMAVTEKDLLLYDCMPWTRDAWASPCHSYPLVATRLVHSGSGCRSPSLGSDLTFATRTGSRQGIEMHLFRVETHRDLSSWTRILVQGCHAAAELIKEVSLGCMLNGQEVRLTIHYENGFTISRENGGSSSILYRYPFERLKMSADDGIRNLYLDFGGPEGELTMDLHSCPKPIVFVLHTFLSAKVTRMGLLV
UniProt Q9H4L7: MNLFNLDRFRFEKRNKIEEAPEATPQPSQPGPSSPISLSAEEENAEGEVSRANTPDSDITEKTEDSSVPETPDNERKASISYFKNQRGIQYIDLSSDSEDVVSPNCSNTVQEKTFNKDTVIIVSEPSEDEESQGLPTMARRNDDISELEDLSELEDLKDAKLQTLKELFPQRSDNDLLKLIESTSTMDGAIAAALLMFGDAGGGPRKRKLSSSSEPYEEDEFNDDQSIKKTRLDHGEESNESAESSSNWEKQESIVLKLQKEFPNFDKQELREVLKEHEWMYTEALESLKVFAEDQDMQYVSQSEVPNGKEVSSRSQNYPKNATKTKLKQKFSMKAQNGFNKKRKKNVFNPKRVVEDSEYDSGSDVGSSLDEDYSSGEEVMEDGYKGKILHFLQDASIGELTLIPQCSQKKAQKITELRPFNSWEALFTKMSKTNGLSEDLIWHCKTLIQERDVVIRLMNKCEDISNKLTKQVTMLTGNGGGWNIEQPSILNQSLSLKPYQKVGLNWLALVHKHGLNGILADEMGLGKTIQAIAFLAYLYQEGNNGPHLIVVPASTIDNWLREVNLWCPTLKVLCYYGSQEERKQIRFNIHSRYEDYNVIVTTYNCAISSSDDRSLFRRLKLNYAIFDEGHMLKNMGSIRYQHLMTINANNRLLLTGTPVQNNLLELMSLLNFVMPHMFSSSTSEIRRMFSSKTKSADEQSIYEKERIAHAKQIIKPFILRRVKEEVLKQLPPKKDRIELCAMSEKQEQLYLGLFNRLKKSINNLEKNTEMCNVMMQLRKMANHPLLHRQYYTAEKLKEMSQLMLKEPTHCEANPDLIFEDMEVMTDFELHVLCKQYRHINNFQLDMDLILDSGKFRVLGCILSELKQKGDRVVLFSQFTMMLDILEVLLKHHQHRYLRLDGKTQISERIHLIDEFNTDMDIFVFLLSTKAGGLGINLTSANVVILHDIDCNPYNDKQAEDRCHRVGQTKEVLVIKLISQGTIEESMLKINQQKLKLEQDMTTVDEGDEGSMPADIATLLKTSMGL
UniProt O75391: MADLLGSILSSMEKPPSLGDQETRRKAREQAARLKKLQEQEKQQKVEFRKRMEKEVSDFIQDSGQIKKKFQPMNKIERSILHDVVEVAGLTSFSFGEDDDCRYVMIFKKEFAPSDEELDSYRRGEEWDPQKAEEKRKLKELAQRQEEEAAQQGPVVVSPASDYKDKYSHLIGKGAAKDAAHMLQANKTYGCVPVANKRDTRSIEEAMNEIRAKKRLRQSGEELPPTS
UniProt Q8NDV3: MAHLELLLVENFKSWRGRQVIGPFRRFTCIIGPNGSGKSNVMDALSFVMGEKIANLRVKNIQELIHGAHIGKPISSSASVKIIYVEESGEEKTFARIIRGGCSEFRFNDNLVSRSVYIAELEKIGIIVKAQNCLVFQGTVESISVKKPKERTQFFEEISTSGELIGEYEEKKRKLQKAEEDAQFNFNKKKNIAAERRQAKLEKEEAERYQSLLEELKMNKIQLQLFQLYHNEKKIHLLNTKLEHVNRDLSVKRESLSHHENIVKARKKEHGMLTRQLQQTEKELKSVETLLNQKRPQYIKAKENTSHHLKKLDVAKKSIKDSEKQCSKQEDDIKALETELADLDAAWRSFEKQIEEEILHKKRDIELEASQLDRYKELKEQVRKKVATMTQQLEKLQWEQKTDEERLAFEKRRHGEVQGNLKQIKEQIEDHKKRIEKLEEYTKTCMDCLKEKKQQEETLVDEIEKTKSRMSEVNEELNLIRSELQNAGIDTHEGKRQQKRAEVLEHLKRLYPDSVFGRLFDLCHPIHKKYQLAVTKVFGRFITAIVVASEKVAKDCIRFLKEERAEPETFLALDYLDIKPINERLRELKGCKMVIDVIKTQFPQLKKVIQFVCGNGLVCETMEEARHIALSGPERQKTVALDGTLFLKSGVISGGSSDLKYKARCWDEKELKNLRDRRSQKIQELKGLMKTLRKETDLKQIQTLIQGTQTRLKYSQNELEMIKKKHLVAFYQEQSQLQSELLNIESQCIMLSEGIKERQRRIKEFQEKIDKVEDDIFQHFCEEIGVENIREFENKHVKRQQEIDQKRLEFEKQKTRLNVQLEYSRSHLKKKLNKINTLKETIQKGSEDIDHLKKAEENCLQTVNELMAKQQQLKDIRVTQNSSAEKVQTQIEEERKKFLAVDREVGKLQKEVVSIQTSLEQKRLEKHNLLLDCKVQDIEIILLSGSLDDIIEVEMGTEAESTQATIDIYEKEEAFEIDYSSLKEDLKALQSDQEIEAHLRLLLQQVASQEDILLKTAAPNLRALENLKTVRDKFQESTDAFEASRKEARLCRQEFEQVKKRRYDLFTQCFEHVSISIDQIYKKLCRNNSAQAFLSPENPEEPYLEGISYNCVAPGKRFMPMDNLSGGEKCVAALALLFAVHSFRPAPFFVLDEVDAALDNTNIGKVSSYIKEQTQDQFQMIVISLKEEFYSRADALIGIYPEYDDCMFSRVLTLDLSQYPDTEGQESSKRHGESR
UniProt P62306, whole entry, looked up: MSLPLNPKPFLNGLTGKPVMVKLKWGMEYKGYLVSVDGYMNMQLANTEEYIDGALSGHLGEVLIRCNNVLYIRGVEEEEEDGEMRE
UniProt Q96DI7: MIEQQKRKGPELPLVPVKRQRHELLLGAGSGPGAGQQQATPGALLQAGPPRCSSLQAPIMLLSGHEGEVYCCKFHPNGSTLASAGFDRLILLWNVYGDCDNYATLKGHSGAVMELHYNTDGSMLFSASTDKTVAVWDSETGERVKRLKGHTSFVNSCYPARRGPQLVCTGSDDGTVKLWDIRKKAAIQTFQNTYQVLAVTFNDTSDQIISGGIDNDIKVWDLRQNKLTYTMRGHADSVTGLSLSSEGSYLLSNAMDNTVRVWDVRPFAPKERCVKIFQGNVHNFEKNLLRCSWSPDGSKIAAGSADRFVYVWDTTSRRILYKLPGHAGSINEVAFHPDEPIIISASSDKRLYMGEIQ
UniProt P09234, whole entry, looked up: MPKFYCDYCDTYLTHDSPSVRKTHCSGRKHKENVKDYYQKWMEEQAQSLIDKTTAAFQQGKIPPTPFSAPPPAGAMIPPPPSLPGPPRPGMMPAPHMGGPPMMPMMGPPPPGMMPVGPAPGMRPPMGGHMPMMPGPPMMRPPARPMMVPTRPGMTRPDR
UniProt Q92925, whole entry, looked up: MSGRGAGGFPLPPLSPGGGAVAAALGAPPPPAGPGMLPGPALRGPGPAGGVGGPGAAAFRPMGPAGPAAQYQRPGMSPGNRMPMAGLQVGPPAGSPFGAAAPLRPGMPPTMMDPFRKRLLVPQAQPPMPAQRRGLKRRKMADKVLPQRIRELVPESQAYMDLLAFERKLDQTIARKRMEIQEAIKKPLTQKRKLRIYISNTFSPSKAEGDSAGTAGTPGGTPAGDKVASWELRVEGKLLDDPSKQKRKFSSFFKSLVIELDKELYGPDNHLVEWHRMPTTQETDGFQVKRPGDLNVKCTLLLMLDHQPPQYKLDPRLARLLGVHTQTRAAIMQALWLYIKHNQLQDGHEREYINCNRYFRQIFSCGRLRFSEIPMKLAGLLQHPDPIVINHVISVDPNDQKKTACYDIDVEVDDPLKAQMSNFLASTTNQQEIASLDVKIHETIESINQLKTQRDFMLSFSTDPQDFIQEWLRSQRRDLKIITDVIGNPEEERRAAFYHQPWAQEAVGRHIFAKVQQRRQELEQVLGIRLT
UniProt Q12824, whole entry, looked up: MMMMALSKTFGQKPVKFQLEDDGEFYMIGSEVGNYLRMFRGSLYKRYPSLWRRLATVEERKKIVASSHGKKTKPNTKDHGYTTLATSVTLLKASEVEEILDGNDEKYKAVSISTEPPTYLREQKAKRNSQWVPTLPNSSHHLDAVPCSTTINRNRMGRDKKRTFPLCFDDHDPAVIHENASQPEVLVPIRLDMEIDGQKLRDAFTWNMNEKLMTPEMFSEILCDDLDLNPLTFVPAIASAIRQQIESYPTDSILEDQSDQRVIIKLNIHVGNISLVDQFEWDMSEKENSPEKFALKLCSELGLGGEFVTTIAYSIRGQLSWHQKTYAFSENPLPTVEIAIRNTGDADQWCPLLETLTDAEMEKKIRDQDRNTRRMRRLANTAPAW
UniProt P62304, whole entry, looked up: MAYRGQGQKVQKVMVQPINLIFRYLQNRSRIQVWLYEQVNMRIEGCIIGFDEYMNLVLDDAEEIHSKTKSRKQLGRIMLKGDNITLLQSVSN

compound: C1COCCN1CCN2C3=CC=CC=C3N=C2NC(=O)C4=CC(=CC=C4)[N+](=O)[O-] [IRAK-1-4 Inhibitor I]; experiment: log2 fold change, soluble protein after heating vs DMSO (PISA); higher = thermal stabilisation; K562 lysate, 10 uM; active = over 0.2 and 3.5 SD of the protein, either way, in both replicates (recomputed)
Procedure, shortened: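 Pellets of K562 cells were dounce-homogenised in PBS pH 7.4 with 1 mM MgCl2, and the crude extract was held at 1 mg/mL protein for a 30 min treatment with 10 μM compound. Aliquots were heated for 3 min over 48°C-58°C and pooled before NP-40 was added to 0.5% at 4°C. The supernatant from 21,000xg for 90 min was quantified by TMTpro 16plex LC-MS/MS with channel sums equalised. Values are reported from duplicates as log-two fold change in thermal stability relative to solvent controls.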

log2 fold change, inactive:
SNRPG (UniProt P62308) 0.019
SNX27 (UniProt Q96L92) -0.013
SMARCD1 (UniProt Q96GM5) -0.036
SNRNP70 (UniProt P08621) 0
SNX2 (UniProt O60749) -0.019
SMARCA4 (UniProt P51532) -0.025
SPAG9 (UniProt O60271) 0.007
SMCHD1 (UniProt A6NHR9) 0.013
SNRPD3 (UniProt P62318) 0.026
SMN1 (UniProt Q16637) 0.02
SNAP23 (UniProt O00161) 0.038
SOGA1 isoform 2 (UniProt O94964) 0
SORBS1 isoform 8 (UniProt Q9BX66) 0.003
SNTB2 (UniProt Q13425) 0.05
SMARCAD1 isoform 2 (UniProt Q9H4L7) -0.006
SNX15 (UniProt Q9NRS6) -0.01
SNAPIN (UniProt O95295) -0.007
SPAG7 (UniProt O75391) 0.017
SMC1B isoform 3 (UniProt Q8NDV3) 0.043
SNX3 (UniProt O60493) -0.003
SNRPF (UniProt P62306) 0.007
SNRNP40 (UniProt Q96DI7) 0.01
SNRNP200 (UniProt O75643) -0.023
SPARC (UniProt P09486) -0.014
SNRPC (UniProt P09234) 0.005
SNX17 (UniProt Q15036) 0.019
SMARCD2 (UniProt Q92925) -0.014
SMARCAL1 (UniProt Q9NZC9) -0.066
SMARCB1 (UniProt Q12824) 0.057
SNRNP48 (UniProt Q6IEG0) -0.048
SNRPC (UniProt Q5TAL2) 0.049
SNX11 (UniProt Q9Y5W9) 0.008
SNCA (UniProt P37840) 0.019
SMU1 (UniProt Q2TAY7) 0.002
SNRPB isoform 3 (UniProt P14678) 0.022
SNRPD2 (UniProt P62316) 0.004
SMARCC2 (UniProt Q8TAQ2) 0.018
SNX6, A0A0A0MRI2 -0.013
SNRPE (UniProt P62304) 0.008

No new results follow: entries from further up.
log2 fold change, inactive:
SNRPB isoform 3 (UniProt P14678) 0.022
SNRPD2 (UniProt P62316) 0.004
